Data from PMC7335091, “Mechanistic insights into chromatin targeting by leukemic NUP98-PHF23 fusion” (Nature Communications, 2020).

Molecular target: T1, PHF23 PHD finger (PHF23PHD) (Homo sapiens, UniProt Q9BUL5)
T1 sequence (Q9BUL5 338-393): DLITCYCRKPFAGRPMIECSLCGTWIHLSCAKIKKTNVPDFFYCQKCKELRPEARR

## CCCCc1oc2ccccc2c1C(=O)c1cc(I)c(OCCN(CC)CC)c(I)c1 [AD, amiodarone]
  1H,15N HSQC NMR titration: Gradual addition of AD or DS to PHF23PHD induced small but significant CSPs in the protein, indicative of direct interactions
